Results reported in PubChem BioAssay AID2685 (National Center for Advancing Translational Sciences (NCATS), 2010).
This is one part of the list. These are further read-outs of the screen, such as a control signal, another cell line or another target. No call is given for them. The list favours compounds with an active or inconclusive main result. Potencies come from curve fits of mixed quality, noted in brackets.

Experiment: qHTS Assay for Lipid Storage Modulators in Drosophila S3 Cells;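 for cell number change: cells counted by Cell Tracker Red CMTPX staining in the red channel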
Details: BODIPY lipid droplet fluorescence, 18-24 h; for cell number change: measured here: cell count max response, cells fed with added oleic acid
Method in brief: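 Drosophila S3 cells got compounds at several concentrations plus oleic acid (400 uM solution). Laser-scanning cytometry with 488 nm excitation read lipid droplets at 500-530 nm and cells at 575-640 nm. Percent activity was relative to 20 uM Triacsin C.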

[1] = measured here: cell number channel AC50, cells fed with added oleic acid
[2] = measured here: lipid fluorescence (Fed channel) AC50, cells fed with added oleic acid

Row | SMILES | cell number change [%] | AC50 [1] | AC50 [2]
1 | Cc1c(N=Cc2nc3ccccc3[nH]2)c(=O)n(-c2ccccc2)n1C | -11.7 |  | 
2 | O=C(NCc1ccccc1Cl)C(=O)c1c[nH]c2ccccc12 | 9.24 | 1840 nM [falling, partial curve] | 
3 | O=C(COc1ccc(F)cc1)NNC(=O)c1cc2ccccc2oc1=O | 7.89 |  | 1840 nM [rising, partial curve, poor fit]
4 | O=C(CNc1ccc(F)cc1)N/N=C1\CCc2ccccc21 | 140 |  | 
5 | O=C(COC(=O)c1cn(-c2ccccc2)nc1-c1ccccc1)c1ccc([N+](=O)[O-])cc1 | 1.32 |  | 1840 nM [rising, partial curve, poor fit]
6 | CCS(=O)(=O)N1CCN(c2ccc(C(=O)NC3C4CC5CC(C4)CC3C5)cc2[N+](=O)[O-])CC1 (configuration not stated) | -32.1 | 20600 nM [falling, single point] | 20600 nM [falling, single point]
7 | COc1ccc(NC(=O)CCCCCN2C(=O)c3cccc([N+](=O)[O-])c3C2=O)c(OC)c1 | -13.2 |  | 
8 | Cc1ccc(NC(=O)CSc2sc3c(O)cc(=O)[nH]c3c2C#N)cc1C | 0.87 |  | 
9 | COc1cccc(-c2nnc(SCC(=O)Nc3cc(C)ccc3OC)n2N)c1 | -18.7 |  | 820 nM [rising, full curve, poor fit]
10 | Nc1cc(-c2nn[nH]n2)ccc1F | -6.69 |  | 
11 | CC(C)(C)c1nc(NCCO)c2nnn(Cc3ccccc3)c2n1 | -31 | 16400 nM [falling, single point] | 1640 nM [falling, partial curve]
12 | Cn1c(=O)c2c(SCC(=O)Nc3ccccc3F)nc(-c3ccccc3F)nc2n(C)c1=O | -16 |  | 920 nM [falling, full curve]
13 | Nc1nnnn1CC(=O)OCc1cccc(Br)c1 |  |  | 9200 nM [falling, partial curve]
14 | O=C(/C=C/c1cc2c(cc1Br)OCO2)NCc1ccc(Cl)cc1 | -93.2 |  | 
15 | COc1ccc(CCNC(=O)c2noc3c2CCCC3)cc1OC | -5.48 |  | 25900 nM [rising, single point]
16 | COc1ccc(S(=O)(=O)NNC(=O)Cc2csc(C)n2)cc1[N+](=O)[O-] |  |  | 820 nM [rising, partial curve]
17 | CC(C)n1c(O)c(N=NC(=O)CNC(=O)Cc2ccc(Cl)cc2)c2ccccc21 | 14.5 |  | 

Some of the entries above, set out differently.
Row	SMILES	cell number change [%]	AC50 [1]	AC50 [2]
1	Cc1c(N=Cc2nc3ccccc3[nH]2)c(=O)n(-c2ccccc2)n1C	-11.7		
2	O=C(NCc1ccccc1Cl)C(=O)c1c[nH]c2ccccc12	9.24	1840 nM [falling, partial curve]	

(further entries)

Row | SMILES | cell number change [%] | AC50 [1] | AC50 [2]
18 | O=C(c1ccc(OC2CCN(Cc3ccccc3C(F)(F)F)CC2)cc1)N1CCCCC1 | -3.76 |  | 5.17 nM [falling, full curve, poor fit]
19 | O=C(NC1CCCCC1)C(c1ccc(F)cc1)N(Cc1ccccc1)C(=O)CN1C(=O)c2ccccc2S1(=O)=O (configuration not stated) | -1.11 |  | 
20 | CCOC(=O)c1ccc(Oc2nc(N(C)C)nc(N3CCOCC3)n2)cc1 | 23.1 |  | 6510 nM [rising, single point]
21 | CCN(CC(=O)Nc1c(F)cccc1F)C(=O)CSc1nc(C)cc(C)n1 | 19.2 | 291 nM [rising, full curve, poor fit] | 
22 | COc1ccc(N2C(=O)c3ccccc3NC23CCCC3)cc1 | 8.01 |  | 
23 | Cc1cccc(CSc2nnc(-c3ccccn3)n2N)c1 | 0.256 |  | 2910 nM [falling, single point]
24 | CCOC(=O)N1CCC(N2CCN(c3ccccc3)CC2)CC1 | 30.7 |  | 
25 | CC(=O)c1cccc(NC(=O)Nc2cccs2)c1 | 4.38 |  | 23100 nM [rising, single point]
26 | CC(C)CC(=O)NCCCCc1ccccc1 | -6.31 | 517 nM [falling, full curve, poor fit] | 1300 nM [falling, partial curve]
27 | O=C1CCC2S/C(=C/Nc3ccc(C(F)(F)F)cc3)C(=O)N12 (configuration not stated) | 8.82 | 1640 nM [falling, partial curve] | 
28 | C=C[C@@H]1c2ccccc2N(S(=O)(=O)c2ccc(C)cc2)[C@H](c2ccc(C(F)(F)F)cc2)C1(C#N)C#N | -1.47 |  | 2060 nM [falling, partial curve]
29 | CC(C(=O)Nc1ccc(C#N)cc1)N1CCN(C(=O)C2CC2)CC1 (configuration not stated) | -20.6 |  | 
30 | Cc1cc(C)c2nc(C(F)(F)F)nc(NCCCN3CCCC3=O)c2c1 | 154 | 1840 nM [rising, full curve] | 1840 nM [rising, full curve]
31 | O=C(c1ccc(NC2=NC3CS(=O)(=O)CC3S2)cc1)N(CCO)Cc1ccccc1 (configuration not stated) | -16.5 |  | 29100 nM [rising, single point]
32 | C#CC(CC)(CC)NC(=O)c1cc(S(=O)(=O)N2CCCCC2)ccc1N1CCOCC1 |  |  | 116 nM [rising, full curve, poor fit]
33 | CSc1ccc(CCCCCCOC(=O)C(C)(C)C)cc1 | -41.8 | 130 nM [falling, full curve] | 10300 nM [falling, partial curve]
